US8809372B2, “Pyridine derivatives” (Endo Pharmaceuticals, Inc., priority 2011, dated 2014)
Some of these results come from one statement about several compounds together. Some compounds share one range, which may span the group rather than tell each member.

What was measured:
[1] = tested on: prostate and seminal vesicle weights; assay: In vivo reduction of prostate and seminal vesicle weights; design: species or system rat; conditions: male rats
Protocol: In vivo Reduction of Prostate and Seminal Vesicle Weights Male rats aged 8 to 10 weeks old (5 animals per group) were dosed orally with compounds once or twice a day at 12-hour intervals for 14 days. On day 14 the animals were euthanized and organs were surgically removed for wet weight determination including the prostate, seminal vesicles and testes.

[2] = tested on: serum testosterone level; assay: In vivo inhibition of testosterone production; design: species or system rat; conditions: male rats, 3 hours after a 30 mg/kg oral dose, vs vehicle-dosed controls
Protocol: In vivo Inhibition of Testosterone Production
Male rats aged 8 to 10 weeks old were dosed orally with compounds at 10 or 30 mg/kg. Blood samples were drawn at 0.5, 3, 8, and 24 hours and were processed to plasma samples. Samples were analyzed for compound levels by LC-MS/MS method and for testosterone levels with an ELISA performed as per manufacturer's protocol (Parameter Testosterone Assay, Cat. No. KGE010, R&D systems; http://www.mdsystems.com/pdf/KGE010.pdf). The serum testosterone level was calculated from standards using GraphPad® Prism software and % inhibition at a given time was calculated by comparing the testosterone level in vehicle control animals at the same time of day.

[3] = 10 mg/kg orally twice a day for 14 days
[4] = 30 mg/kg orally twice a day for 14 days

Compound | reduction of prostate weight [1, 3] | reduction of seminal vesicle weight [1, 3] | decrease of serum testosterone levels [2] | reduction of seminal vesicle weight [1, 4]
CC(O)(c1ccncc1)c1cnc(-c2ccc(F)cc2)s1 (single isomer, unassigned) [Example 9, 1-(2-(4-fluorophenyl)thiazol-5-yl)-1-(pyridin-4-yl)ethanol] | 20 to 30% | 30 to 50% | – | –
CC(O)(c1ccncc1)c1nc(-c2ccc(F)cc2)no1 (single isomer, unassigned; (+)) [Example 36, (+)-1-(3-(4-fluoro-phenyl)-1,2,4-oxadiazol-5-yl)-1-(pyridin-4-yl)ethanol] | – | – | 85-95% | 50-70%
Cn1cc(-c2ccc(C(C)(O)c3ccncc3)s2)ccc1=O (single isomer, unassigned; (-)) [Example 17, (−)-5-(5-(1-hydroxy-1-(pyridin-4-yl)ethyl)thiophen-2-yl)-1-methylpyridin-2(1H)-one] | – | – | 85-95% | 50-70%
